Experimental data taken from paper PMC10404699.
Numbering of substitutions follows the chain as printed. Numbers in names are those of the source. Results are given in words; binding and its absence hold for the method and conditions named. Binding seen in cells or lysates may run through a third protein. Some entries that bind do so weakly or less than the wild type. Sequences can lack the tags named with a protein. Each block holds one binder with its values, some of them ahead of it.

By UniProt entry, the sequences of proteins in these tests, tags left out.
UniProt Q9Y3Z3: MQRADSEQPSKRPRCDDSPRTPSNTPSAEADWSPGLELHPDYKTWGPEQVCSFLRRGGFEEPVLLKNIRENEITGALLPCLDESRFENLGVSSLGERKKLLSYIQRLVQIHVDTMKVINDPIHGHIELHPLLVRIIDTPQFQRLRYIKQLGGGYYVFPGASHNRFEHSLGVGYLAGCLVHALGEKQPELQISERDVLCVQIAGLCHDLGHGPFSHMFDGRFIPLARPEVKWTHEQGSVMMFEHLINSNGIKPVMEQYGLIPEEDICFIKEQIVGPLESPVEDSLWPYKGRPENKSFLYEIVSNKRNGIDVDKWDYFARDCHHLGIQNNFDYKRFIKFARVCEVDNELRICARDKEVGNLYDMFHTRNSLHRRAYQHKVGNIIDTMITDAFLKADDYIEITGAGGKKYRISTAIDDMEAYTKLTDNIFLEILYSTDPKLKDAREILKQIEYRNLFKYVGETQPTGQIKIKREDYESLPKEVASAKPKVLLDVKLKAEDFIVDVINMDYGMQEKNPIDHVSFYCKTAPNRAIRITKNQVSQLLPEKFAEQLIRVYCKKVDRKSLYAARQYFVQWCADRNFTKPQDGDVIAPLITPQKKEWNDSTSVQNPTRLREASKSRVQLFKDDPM
UniProt Q7Z434: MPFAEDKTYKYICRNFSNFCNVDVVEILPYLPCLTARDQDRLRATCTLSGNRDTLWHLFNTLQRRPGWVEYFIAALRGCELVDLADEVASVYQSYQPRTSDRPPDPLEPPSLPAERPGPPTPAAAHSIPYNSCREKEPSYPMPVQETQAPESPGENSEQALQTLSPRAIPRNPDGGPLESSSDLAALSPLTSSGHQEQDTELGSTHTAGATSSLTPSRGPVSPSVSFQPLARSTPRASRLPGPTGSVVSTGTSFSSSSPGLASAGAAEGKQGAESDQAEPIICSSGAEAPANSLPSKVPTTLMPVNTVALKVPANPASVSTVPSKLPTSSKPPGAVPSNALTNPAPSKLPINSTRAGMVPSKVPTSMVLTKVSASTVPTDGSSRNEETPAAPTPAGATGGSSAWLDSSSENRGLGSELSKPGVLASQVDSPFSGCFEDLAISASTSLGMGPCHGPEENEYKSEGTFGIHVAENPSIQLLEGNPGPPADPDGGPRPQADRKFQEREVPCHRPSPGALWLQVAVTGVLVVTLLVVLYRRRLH

Key:
[1] = target: HA-tagged SAMHD1 WT (sterile alpha motif and HD domain-containing protein 1) (human) (UniProt Q9Y3Z3); assay: co-IP; HEK293T cotransfected, lysed 36 h posttransfection; IP with anti-HA antibody (HA-SAMHD1 as bait) and Dynabeads Protein G; nonspecific IgG as negative control; washed with 50 mM Tris (pH7.4), 150 mM NaCl, 1% NP-40, 0.25% sodium deoxycholate; immunoblot
[2] = target: FLAG-tagged full-length MAVS (mitochondrial antiviral-signaling protein) (human) (UniProt Q7Z434); assay: co-IP; HEK293T cotransfected, lysed 36 h posttransfection; IP with anti-FLAG antibody and Dynabeads Protein G; washed with 50 mM Tris (pH7.4), 150 mM NaCl, 1% NP-40, 0.25% sodium deoxycholate; immunoblot
[3] = target: T1, FLAG-tagged full-length IRF7 (IFN regulatory factor 7) (human), Q92985; assay: as above; settings: remark: other sources report otherwise
T1 chain: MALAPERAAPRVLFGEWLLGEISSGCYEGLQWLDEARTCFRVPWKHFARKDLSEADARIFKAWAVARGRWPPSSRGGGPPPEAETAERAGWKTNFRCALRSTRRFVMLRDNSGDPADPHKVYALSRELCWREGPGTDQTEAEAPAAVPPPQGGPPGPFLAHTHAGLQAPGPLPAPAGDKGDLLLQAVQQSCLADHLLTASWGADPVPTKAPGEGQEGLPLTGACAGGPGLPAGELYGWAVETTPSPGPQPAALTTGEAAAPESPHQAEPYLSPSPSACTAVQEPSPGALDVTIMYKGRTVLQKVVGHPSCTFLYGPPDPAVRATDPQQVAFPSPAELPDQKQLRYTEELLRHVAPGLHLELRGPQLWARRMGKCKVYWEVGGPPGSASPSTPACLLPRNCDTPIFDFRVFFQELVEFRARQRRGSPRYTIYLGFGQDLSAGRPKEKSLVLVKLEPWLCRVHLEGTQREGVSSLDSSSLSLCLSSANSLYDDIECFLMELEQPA

- binding [1]: binds
B1: kinase-inactive IKKε K38A (enzyme, UniProt Q14164 1-716)
chain: MQSTANYLWHTDDLLGQGATASVYKARNKKSGELVAVAVFNTTSYLRPREVQVREFEVLRKLNHQNIVKLFAVEETGGSRQKVLVMEYCSSGSLLSVLESPENAFGLPEDEFLVVLRCVVAGMNHLRENGIVHRDIKPGNIMRLVGEEGQSIYKLTDFGAARELDDDEKFVSVYGTEEYLHPDMYERAVLRKPQQKAFGVTVDLWSIGVTLYHAATGSLPFIPFGGPRRNKEIMYRITTEKPAGAIAGAQRRENGPLEWSYTLPITCQLSLGLQSQLVPILANILEVEQAKCWGFDQFFAETSDILQRVVVHVFSLSQAVLHHIYIHAHNTIAIFQEAVHKQTSVAPRHQEYLFEGHLCVLEPSVSAQHIAHTTASSPLTLFSTAIPKGLAFRDPALDVPKFVPKVDLQADYNTAKGVLGAGYQALRLARALLDGQELMFRGLHWVMEVLQATCRRTLEVARTSLLYLSSSLGTERFSSVAGTPEIQELKAAAELRSRLRTLAEVLSRCSQNITETQESLSSLNRELVKSRDQVHEDRSIQQIQCCLDKMNFIYKQFKKSRMRPGLGYNEEQIHKLDKVNFSHLAKRLLQVFQEECVQKYQASLVTHGKRMRVVHETRNHLRLVGCSVAACNTEAQGVQESLSKLLEELSHQLLQDRAKGAQASPPPIAPYPSPTRKDLLLHMQELCEGMKLLASDLLDNNRIIERLNRVPAPPDV

- binding [2]: binds
- binding [1]: binds
B2: myc-tagged full-length IKKε (enzyme, UniProt Q14164 1-716)
chain: B1 chain with A38K

More lines, now with the values behind:

B3: FLAG-tagged full-length IRF7 (IFN regulatory factor 7) (protein, UniProt Q92985 1-503)
chain: T1 chain
- binding [1]: binds

B4: FLAG-tagged full-length IRF7 (IFN regulatory factor 7), Q92985 1-503 (protein)
chain: T1 chain
- binding [3]: binds
